Source: paper PMC4811471
Construct, isoform or probe ends are uncertain for at least one entry. No signal at the amounts used counts as a negative.

Chains of the proteins cited; added tags and fusions are not shown.
UniProt Q15717, whole entry: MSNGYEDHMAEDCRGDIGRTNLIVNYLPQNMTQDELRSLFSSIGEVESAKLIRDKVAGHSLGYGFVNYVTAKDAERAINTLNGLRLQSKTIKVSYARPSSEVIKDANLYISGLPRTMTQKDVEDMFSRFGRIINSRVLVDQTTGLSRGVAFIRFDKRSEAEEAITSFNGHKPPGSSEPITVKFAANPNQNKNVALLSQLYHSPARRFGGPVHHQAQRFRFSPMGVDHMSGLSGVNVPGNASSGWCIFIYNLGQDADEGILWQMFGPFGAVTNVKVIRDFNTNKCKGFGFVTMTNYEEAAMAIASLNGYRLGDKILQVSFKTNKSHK

Target: GST-HuR (UniProt Q15717)
Experiment: UV cross-linking
Conditions: 3 mM Mg2+, 300 mM KCl; UV cross-linking: 10 mM Tris-HCl pH 7.4, 3 mM MgCl2, 300 mM KCl, 1 mM DTT, 0.2 mM PMSF, leupeptin, 30 min room temperature, then RNase T1/A and heparin; recombinant protein; protein details: N-terminal GST (pGEX-KG); label: 32P-UTP; probe letters rebuilt from the primers and the genome; part of a longer …

| Sequence | binding result |
| --- | --- |
| AUAUAAGAACUCUUGCAGUCUUAGAUGUUAUAAAAAUAUAUAUCUGAAUUGUAAGAGUUGUUAGCACAAGUUUUUUUUUUUUUUUUUUUUAAGCACUUGUUUUGGGUACAAGGCAUUUCUGACAUUUUAUAAACCUACAUUUAAGGGGAAUUUUUAAAGGAAAUGUUUUUUCUUUUUUUUUUGUUUUUCGAGGGGGCAAG [PDCD4 3'UTR S1] | binds |
| GAGGGACAGAAAAGUAACCUCUUCUUAAGUGGAAUAUUCUAAUAAGCUACCUUUUGUAAGUGCCAUGUUUAUUAUCUAAUCAUUCCAAGUUUUGCAUUGAUGUCUGACUGCCACUCCUUUCUUUCAAGGACAGUGUUUUUUGUAGUAAAAUCACUGGUUUAUACAAAGCUUUAUUUAGGGGGUAAAGUUAAGCUGCUAAAA [PDCD4 3'UTR S2] | no binding |
